Results published in PMC10698284.
No constants are given. Whether binding was seen depends on the method and setting. Binding seen in cells or lysates may run through a third protein. Here binding means that the protein was enriched with, or labelled near, the bait; the list need not be complete.

The chains behind the UniProt entries cited, without tags or fusion partners. Where a name states a change or a piece, a line headed by the entry shows the natural chain unless it says otherwise. A line that says so, or that is headed by a name, gives the form on record, which may keep a tag or linker. Residues count along the entry.
FLAG-SLC3A2 WTseq (P08195, residues 66-630): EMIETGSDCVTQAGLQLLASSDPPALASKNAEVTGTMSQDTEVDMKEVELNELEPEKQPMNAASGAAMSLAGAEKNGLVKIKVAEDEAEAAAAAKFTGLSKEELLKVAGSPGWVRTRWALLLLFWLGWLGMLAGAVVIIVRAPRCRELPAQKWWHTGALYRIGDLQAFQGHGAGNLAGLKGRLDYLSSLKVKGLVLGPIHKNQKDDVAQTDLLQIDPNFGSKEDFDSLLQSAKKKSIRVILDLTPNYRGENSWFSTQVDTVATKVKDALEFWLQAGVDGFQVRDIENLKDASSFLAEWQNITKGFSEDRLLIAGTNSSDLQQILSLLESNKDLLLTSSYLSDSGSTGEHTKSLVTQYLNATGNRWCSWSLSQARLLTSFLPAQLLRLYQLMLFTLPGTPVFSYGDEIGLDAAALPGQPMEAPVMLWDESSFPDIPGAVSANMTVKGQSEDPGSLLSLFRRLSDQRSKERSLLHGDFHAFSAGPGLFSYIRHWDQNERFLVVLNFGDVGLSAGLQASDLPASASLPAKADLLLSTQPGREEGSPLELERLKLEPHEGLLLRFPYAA
FLAG-SLC3A2 A273N (P08195, form named): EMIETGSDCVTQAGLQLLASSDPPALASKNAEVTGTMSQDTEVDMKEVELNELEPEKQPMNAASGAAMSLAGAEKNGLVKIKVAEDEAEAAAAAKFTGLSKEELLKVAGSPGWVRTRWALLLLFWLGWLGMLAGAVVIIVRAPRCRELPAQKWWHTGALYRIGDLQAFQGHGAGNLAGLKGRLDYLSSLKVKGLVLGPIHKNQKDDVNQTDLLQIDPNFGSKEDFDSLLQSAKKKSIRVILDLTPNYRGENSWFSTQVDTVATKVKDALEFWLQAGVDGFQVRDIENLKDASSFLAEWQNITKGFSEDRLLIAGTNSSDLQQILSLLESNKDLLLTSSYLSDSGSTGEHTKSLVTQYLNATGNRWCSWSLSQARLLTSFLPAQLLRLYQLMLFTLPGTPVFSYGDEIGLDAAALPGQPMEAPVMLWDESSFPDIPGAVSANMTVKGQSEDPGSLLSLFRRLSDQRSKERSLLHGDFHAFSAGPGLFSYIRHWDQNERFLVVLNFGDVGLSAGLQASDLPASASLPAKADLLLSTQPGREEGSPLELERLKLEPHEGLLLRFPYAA
FLAG-SLC3A2 A273N + D355N (P08195, form named): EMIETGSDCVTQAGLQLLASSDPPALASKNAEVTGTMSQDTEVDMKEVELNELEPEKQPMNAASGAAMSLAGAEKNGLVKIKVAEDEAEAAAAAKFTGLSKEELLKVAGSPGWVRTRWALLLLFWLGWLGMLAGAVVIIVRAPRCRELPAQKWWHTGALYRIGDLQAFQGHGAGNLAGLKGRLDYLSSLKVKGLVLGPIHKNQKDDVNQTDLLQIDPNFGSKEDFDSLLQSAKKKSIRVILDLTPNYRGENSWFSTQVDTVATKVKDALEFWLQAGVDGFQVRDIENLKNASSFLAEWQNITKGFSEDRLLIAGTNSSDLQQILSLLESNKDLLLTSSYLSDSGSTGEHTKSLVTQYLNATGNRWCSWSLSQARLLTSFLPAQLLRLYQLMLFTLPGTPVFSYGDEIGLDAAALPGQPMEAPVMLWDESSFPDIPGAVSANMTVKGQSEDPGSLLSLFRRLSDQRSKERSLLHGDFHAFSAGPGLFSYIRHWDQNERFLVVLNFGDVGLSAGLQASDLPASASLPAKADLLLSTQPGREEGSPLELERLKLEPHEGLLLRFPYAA

Assays:
Test in all cases: affinity purification with mass spectrometry; anti-FLAG M2 agarose, 4 h at 4 °C, 1 mg lysate (0.5% NP40, 50 mM HEPES pH 8.0, 100 mM KCl, 1 mM EDTA, 10% glycerol) of HeLa Flp-In T-REx SLC3A2 KO cells with dox-induced FLAG-SLC3A2 WTseq or site variants; on-bead trypsin digest, DDA and SWATH; control: dox-treated SLC3A2 KO cells; in some samples 10 μM fluvastatin or 250 ng/ml swainsonine for the final 24 h
[1] = target: FLAG-SLC3A2 A273N (human) (UniProt P08195)
[2] = target: FLAG-SLC3A2 WTseq (human) (UniProt P08195)
[3] = target: FLAG-SLC3A2 A273N + D355N (human) (UniProt P08195)

Measured: binding

B1: SLC1A4 (protein, UniProt P43007 1-532)
chain: MEKSNETNGYLDSAQAGPAAGPGAPGTAAGRARRCAGFLRRQALVLLTVSGVLAGAGLGAALRGLSLSRTQVTYLAFPGEMLLRMLRMIILPLVVCSLVSGAASLDASCLGRLGGIAVAYFGLTTLSASALAVALAFIIKPGSGAQTLQSSDLGLEDSGPPPVPKETVDSFLDLARNLFPSNLVVAAFRTYATDYKVVTQNSSSGNVTHEKIPIGTEIEGMNILGLVLFALVLGVALKKLGSEGEDLIRFFNSLNEATMVLVSWIMWYVPVGIMFLVGSKIVEMKDIIVLVTSLGKYIFASILGHVIHGGIVLPLIYFVFTRKNPFRFLLGLLAPFATAFATCSSSATLPSMMKCIEENNGVDKRISRFILPIGATVNMDGAAIFQCVAAVFIAQLNNVELNAGQIFTILVTATASSVGAAGVPAGGVLTIAIILEAIGLPTHDLPLILAVDWIVDRTTTVVNVEGDALGAGILHHLNQKATKKGEQELAEVKVEAIPNCKSEEETSPLVTHQNPAGPVASAPELESKESVL
binds: all assays above

B2: SLC38A2 (protein, UniProt Q96QD8 1-506)
chain: MKKAEMGRFSISPDEDSSSYSSNSDFNYSYPTKQAALKSHYADVDPENQNFLLESNLGKKKYETEFHPGTTSFGMSVFNLSNAIVGSGILGLSYAMANTGIALFIILLTFVSIFSLYSVHLLLKTANEGGSLLYEQLGYKAFGLVGKLAASGSITMQNIGAMSSYLFIVKYELPLVIQALTNIEDKTGLWYLNGNYLVLLVSLVVILPLSLFRNLGYLGYTSGLSLLCMVFFLIVVICKKFQVPCPVEAALIINETINTTLTQPTALVPALSHNVTENDSCRPHYFIFNSQTVYAVPILIFSFVCHPAVLPIYEELKDRSRRRMMNVSKISFFAMFLMYLLAALFGYLTFYEHVESELLHTYSSILGTDILLLIVRLAVLMAVTLTVPVVIFPIRSSVTHLLCASKDFSWWRHSLITVSILAFTNLLVIFVPTIRDIFGFIGASAASMLIFILPSAFYIKLVKKEPMKSVQKIGALFFLLSGVLVMTGSMALIVLDWVHNAPGGGH
binds: all assays above

B3: SLC38A1 (protein, UniProt Q9H2H9 1-487)
chain: MMHFKSGLELTELQNMTVPEDDNISNDSNDFTEVENGQINSKFISDRESRRSLTNSHLEKKKCDEYIPGTTSLGMSVFNLSNAIMGSGILGLAFALANTGILLFLVLLTSVTLLSIYSINLLLICSKETGCMVYEKLGEQVFGTTGKFVIFGATSLQNTGAMLSYLFIVKNELPSAIKFLMGKEETFSAWYVDGRVLVVIVTFGIILPLCLLKNLGYLGYTSGFSLSCMVFFLIVVIYKKFQIPCIVPELNSTISANSTNADTCTPKYVTFNSKTVYALPTIAFAFVCHPSVLPIYSELKDRSQKKMQMVSNISFFAMFVMYFLTAIFGYLTFYDNVQSDLLHKYQSKDDILILTVRLAVIVAVILTVPVLFFTVRSSLFELAKKTKFNLCRHTVVTCILLVVINLLVIFIPSMKDIFGVVGVTSANMLIFILPSSLYLKITDQDGDKGTQRIWAALFLGLGVLFSLVSIPLVIYDWACSSSSDEGH
binds: all assays above

B4: Zn++ transporter SLC30A1 (protein, UniProt Q9Y6M5 1-507)
chain: MGCWGRNRGRLLCMLALTFMFMVLEVVVSRVTSSLAMLSDSFHMLSDVLALVVALVAERFARRTHATQKNTFGWIRAEVMGALVNAIFLTGLCFAILLEAIERFIEPHEMQQPLVVLGVGVAGLLVNVLGLCLFHHHSGFSQDSGHGHSHGGHGHGHGLPKGPRVKSTRPGSSDINVAPGEQGPDQEETNTLVANTSNSNGLKLDPADPENPRSGDTVEVQVNGNLVREPDHMELEEDRAGQLNMRGVFLHVLGDALGSVIVVVNALVFYFSWKGCSEGDFCVNPCFPDPCKAFVEIINSTHASVYEAGPCWVLYLDPTLCVVMVCILLYTTYPLLKESALILLQTVPKQIDIRNLIKELRNVEGVEEVHELHVWQLAGSRIIATAHIKCEDPTSYMEVAKTIKDVFHNHGIHATTIQPEFASVGSKSSVVPCELACRTQCALKQCCGTLPQAPSGKDAEKTPAVSISCLELSNNLEKKPRRTKAENIPAVVIEIKNMPNKQPESSL
binds: all assays above

B5: SLC39A1 (protein, UniProt Q9NY26 1-324)
chain: MGPWGEPELLVWRPEAVASEPPVPVGLEVKLGALVLLLVLTLLCSLVPICVLRRPGANHEGSASRQKALSLVSCFAGGVFLATCLLDLLPDYLAAIDEALAALHVTLQFPLQEFILAMGFFLVLVMEQITLAYKEQSGPSPLEETRALLGTVNGGPQHWHDGPGVPQASGAPATPSALRACVLVFSLALHSVFEGLAVGLQRDRARAMELCLALLLHKGILAVSLSLRLLQSHLRAQVVAGCGILFSCMTPLGIGLGAALAESAGPLHQLAQSVLEGMAAGTFLYITFLEILPQELASSEQRILKVILLLAGFALLTGLLFIQI
binds: all assays above
